Assay results from patent US20200237711A1, “Compositions for Treating and/or Preventing Cancer” (Boston Biomedical, Inc., priority 2017, published 2020).
At least one structure is not confirmed: it was looked up by name or label, or the drawing left a doubt.

System: metabolism of 2-acetylnaphtho[2,3-b]furan-4,9-dione in human liver cytosol
Assay: Screening for an inhibitor of a metabolic enzyme (human liver cytosol, LC-MS/MS)
Format: biochemical
Details: test drug 10 μmol/L, substrate 0.5 μmol/L, 37° C., 5 minutes (FIG. 9)
Description: To a reaction solution obtained by dissolving a human liver cytosol (0.1 mg/mL) and NADPH (1 mmol/L) in a phosphate buffer solution, a test drug (10 μmol/L) was added. Then, 2-acetylnaphtho[2,3-b]furan-4,9-dione was added to be 0.5 μmol/L and thereby the reaction was started. After incubation at 37° C. for 5 minutes, 50 nmol/L phenytoin solution, which had been dissolved in 0.1% formic acid-containing acetonitrile, was added and the reaction was terminated. After centrifugation, the resulting supernatant was measured using LC-MS/MS to quantify the residual amount of 2-acetylnaphtho[2,3-b]furan-4,9-dione, and the inhibition intensity of the test drugs was evaluated by comparison with the control group.

CCc1ccc(CCOc2ccc(CC3SC(=O)NC3=O)cc2)nc1 (stereo not shown) [pioglitazone]
inhibition of the metabolism of 2-acetylnaphtho[2,3-b]furan-4,9-dione (residual amount vs control): inhibited
